{"source": "PubChem BioAssay AID1508600", "about": "(Functional Genomics Laboratory (NCATS/FGL), 2020)", "note": "In all, about 53,000 sequences went through this assay and about 3,700 (7%) were called active.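 Rule for the calls: active = gene knockdowns whose robust z-score for IL-1 alpha signal is at least 2 or at most -2, so actives lie on both sides; inactive = the rest.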 This is one part of the list.", "data": [{"assay": "Components of the Cytosolic LPS Sensing Pathway: Gene Identification via Genome-wide siRNA Screen;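 note: robust z of the log signal after scaling to non-targeting control siRNA wells of the plate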", "conditions": "RAW264.7 macrophages, IL-1a HTRF, actives lie on both sides, screened at 100 nM (by protocol), cells primed 5 h with Pam3CSK4 first", "in_short": "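RAW264.7 mouse macrophages reverse-transfected with single siRNAs (100 nM final) for 48h, primed with Pam3CSK4 for 5 hours, then transfected with LipidA for 24 hour. Supernatant IL-1a read by HTRF; values normalized to negative-control median, log-transformed robust z-scores.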", "values": [{"sequence": "GGAUGGUCAUAAGGAUCAATT against Adgrg7", "z-score": "inactive: 0.377"}, {"sequence": "GGUCUGAAAGGCAUGAUACTT against Adam4", "z-score": "inactive: 0.065"}, {"sequence": "GGAACGUAUGAAGUUAAACTT against Cd80", "z-score": "inactive: 0.428"}, {"sequence": "GGCAUGUGGUUGAAGGCCUTT against Fank1", "z-score": "inactive: -0.337"}, {"sequence": "GCUGUUCGUGAGGAUAACCTT against Yipf1", "z-score": "inactive: 1.2"}, {"sequence": "GGAUGUUGAACAAAAGAAGTT against Abce1", "z-score": "inactive: -0.863"}, {"sequence": "GUCUCCACUGGUGCCUAUATT against Higd1b", "z-score": "inactive: -0.095"}, {"sequence": "GGUGGUUUAAAGACUUGAUTT against D1Pas1", "z-score": "inactive: -0.683"}, {"sequence": "GGUAGCUGUCCAGGGUUAUTT against Alkbh6", "z-score": "inactive: -1.44"}, {"sequence": "GGCCAAGAAGACUUAUGUATT against Tufm", "z-score": "inactive: -1.17"}, {"sequence": "GCUCAUGUCAGGAGAGAGUTT against Ocel1", "z-score": "active: -2.41"}, {"sequence": "CCAAUGCCGCCAGAAGUUATT against Siah2", "z-score": "inactive: 0.295"}, {"sequence": "GGCCGCUACCUUUAUGAACTT against Prpf3", "z-score": "inactive: 0.219"}, {"sequence": "GGACUGGUUCACUUUGUGGTT against Cox7a2l", "z-score": "inactive: 0.629"}, {"sequence": "CCCAGUAAUAUGAAAAGAGTT against Gucy2f", "z-score": "inactive: -0.408"}, {"sequence": "GGAAGAUUCAUGAGAUAUUTT against Prdm5", "z-score": "inactive: -0.914"}, {"sequence": "CGGUGUUCAACUGCACUUUTT against Thsd1", "z-score": "inactive: 0.0704"}, {"sequence": "GCACACUCACUUGGUUCGUTT against Dsg2", "z-score": "inactive: 0.684"}, {"sequence": "CCUCAUGGAUGUUCGUAGATT against P2ry10", "z-score": "inactive: 0.452"}, {"sequence": "CGGACUUGAGAGCAGAACCTT against Oit1", "z-score": "active: 2.02"}, {"sequence": "GGUGAUUGACACCAAAUCUTT against Slk", "z-score": "inactive: -0.652"}, {"sequence": "GGACUUCGUGAACAAGAUCTT against Grin2b", "z-score": "inactive: -0.439"}, {"sequence": "GGACAACACACCAUUUCUCTT against Pcbp1", "z-score": "inactive: -0.317"}, {"sequence": "GGCAGAACAGGCAUUUUCATT against Nipal3", "z-score": "inactive: -1.86"}, {"sequence": "GCAAUUUCCAGAAGUUAUCTT against Baz2a", "z-score": "inactive: 1.18"}, {"sequence": "CCGGAUAUUUAUCAGUGAUTT against Tiam2", "z-score": "inactive: 0.203"}, {"sequence": "GGGAUCAAAACAUACUGUGTT against Klra4", "z-score": "inactive: 0.0891"}, {"sequence": "GAGAACCAGGCUAUGUCUGTT against Defa-rs10", "z-score": "inactive: 0.623"}, {"sequence": "GGAGCAGGCAUCGUGUUUATT against Cdh20", "z-score": "inactive: 1.8"}, {"sequence": "GGGUUAGCUCCCGUCAUCATT against Zbtb41", "z-score": "inactive: -0.761"}, {"sequence": "GGAUUCAGGAGUUCAUUGATT against Maea", "z-score": "inactive: 0.281"}, {"sequence": "GGCAGACGGUAAUAAACAUTT against Ralgapb", "z-score": "inactive: -1.08"}, {"sequence": "GGUUGCACAAAAGAAGCUGTT against Pemt", "z-score": "inactive: -1.29"}, {"sequence": "CCGGAGUUAUACCGUAAGATT against Plaur", "z-score": "inactive: -0.671"}, {"sequence": "GGAACUUUUUCAGAGCUCUTT against Senp3", "z-score": "inactive: -1.6"}, {"sequence": "GCUAGAGAUCCGGAUUAAGTT against A930018P22Rik", "z-score": "inactive: -0.412"}, {"sequence": "CCCUUAAAAUGUGCAUAUCTT against Tmem186", "z-score": "inactive: 0.884"}, {"sequence": "GGUAUCAGACAAACACCAGTT against Syt5", "z-score": "inactive: -1.12"}, {"sequence": "GGAUUUUCCAGGCAUGAGGTT against Ehd3", "z-score": "active: -2.24"}, {"sequence": "CGUGACUUCUAUCAUACUUTT against Fntb", "z-score": "inactive: -0.254"}, {"sequence": "GGAUAAUUUAAACAUGGGATT against Cd276", "z-score": "inactive: -1.08"}, {"sequence": "GGUCAUGUGAAUUUUUCUGTT against Eftud2", "z-score": "inactive: -1.31"}, {"sequence": "GGAAGAUGAAAGAAGAGAGTT against Igdcc3", "z-score": "inactive: 0.409"}, {"sequence": "GCUCCCAUACAGCACCUUCTT against Tbx2", "z-score": "inactive: -0.018"}, {"sequence": "GGGCUCUACAGUUUUUAAUTT against Atp5g3", "z-score": "inactive: 1.31"}, {"sequence": "GGCAAAAAGGCAGUAGCCATT against Ncl", "z-score": "inactive: 0.644"}, {"sequence": "GCAGUUGUUUUGACUUACUTT against E330018D03Rik", "z-score": "inactive: 0.8"}, {"sequence": "GCAACAAUCUGAGGACGACTT against Celf4", "z-score": "inactive: 0.667"}, {"sequence": "CGCACUUACCGUGUCCUAUTT against Homer3", "z-score": "inactive: 0.0495"}, {"sequence": "AUCUGAGGAAAUCGCCCUATT against Olfr1278", "z-score": "inactive: 0.291"}, {"sequence": "GGAUUCUUUACAGAAUCAATT against Ahsa2", "z-score": "inactive: -0.731"}, {"sequence": "GGACUUAGAGAGUUUCUUGTT against Numa1", "z-score": "inactive: -0.258"}, {"sequence": "GCCCAGAUUAUCAGAUCUGTT against Tnfaip2", "z-score": "inactive: 0.54"}, {"sequence": "CCCACUCCUUCUAAAAGUUTT against Cyp3a13", "z-score": "inactive: -0.909"}, {"sequence": "GGUGAAAGAUGCCUCUAAGTT against Olfr1038-ps", "z-score": "inactive: 0.51"}, {"sequence": "GCAAAUCUUGUAAUAACACTT against Uty", "z-score": "inactive: 0.254"}, {"sequence": "GGACUGGUUCUUCAGUACCTT against Cradd", "z-score": "active: 2.21"}, {"sequence": "GGACAAUGGAGCUCAAGUCTT against Prelid3b", "z-score": "inactive: 0.752"}, {"sequence": "GCUCAAUCAAAAAGAUCCUTT against Spata2l", "z-score": "inactive: -0.907"}, {"sequence": "GGAACUAUCUUGGUGAAGCTT against Robo2", "z-score": "inactive: -0.977"}, {"sequence": "GGUUGUUGACAAACAAAAATT against Fam161b", "z-score": "inactive: -1.2"}, {"sequence": "GGCCUCACUUGGAUCCUUATT against Zfx", "z-score": "inactive: 0.167"}, {"sequence": "GGCUCUCAGCUGAAAGAAATT against Wdr86", "z-score": "inactive: 1.2"}, {"sequence": "GGAGUUUGAGGAAGAUCUGTT against Rbp1", "z-score": "inactive: -0.953"}, {"sequence": "GGAUCUCAAGAGUGUUGUUTT against Rnf10", "z-score": "inactive: -0.396"}, {"sequence": "GGAAUAACUUUCCAUACCATT against Zfp959", "z-score": "inactive: 0.508"}, {"sequence": "GGUCACUGUGCAAUGAAAATT against Olfr435", "z-score": "inactive: -0.535"}, {"sequence": "GGAUAAAACCAGAACUCUATT against Syt10", "z-score": "inactive: -0.413"}, {"sequence": "GCCCAUUACCAAGCACAUCTT against Psma2", "z-score": "inactive: -1.72"}, {"sequence": "GGCCCAGAACCGCAUUAAATT against Pdlim4", "z-score": "inactive: 0.0557"}, {"sequence": "GCUACAAGUGUUGCCUGAATT against Slit1", "z-score": "inactive: 1.21"}, {"sequence": "GCUUGUUGAAAGGCCGAGCTT against Ankmy2", "z-score": "inactive: 0.142"}, {"sequence": "GGAGCUAAGACAGUUUGGATT against Uroc1", "z-score": "inactive: 1.06"}, {"sequence": "GGUGAACAAUACGGCUGUGTT against Tmem245", "z-score": "inactive: -0.146"}, {"sequence": "GGAGCUCCAGCUUCUUGAATT against E130309D02Rik", "z-score": "inactive: 0.717"}, {"sequence": "GGUGGUUUGUGAUUGGCUUTT against Ctnnbip1", "z-score": "inactive: 0.533"}, {"sequence": "GCGAUCAAAAUUGUGUCACTT against Minar2", "z-score": "inactive: -0.776"}, {"sequence": "GGAUAUCAUCGUGUUUAUUTT against Vps45", "z-score": "inactive: 0.612"}, {"sequence": "GCAGAAACAAGGUUGAGAATT against Tgm6", "z-score": "inactive: 1.1"}, {"sequence": "GCAUCUGCAUUUUUUGCUATT against Prox1", "z-score": "inactive: 1.29"}, {"sequence": "GGCCAUCAUGAAGAUUGCCTT against Htr2c", "z-score": "inactive: -0.995"}, {"sequence": "GGGAGCUGUUAACCUCAUCTT against Mthfr", "z-score": "active: 3.34"}, {"sequence": "GCACAAAUUCAUCACACGATT against Stk25", "z-score": "inactive: 1.29"}, {"sequence": "GGCAUCGAGAUUUAAUUGATT against Usp27x", "z-score": "inactive: -0.179"}, {"sequence": "GGAUUUGACCGUAAAAAGATT against Pcsk2", "z-score": "inactive: 0.439"}, {"sequence": "GGCCAUUUGUUAGGACCUGTT against Prmt6", "z-score": "inactive: 0.205"}, {"sequence": "GGCUCAAAGUCCUCAGAGCTT against Atp6v1e1", "z-score": "active: -2.15"}, {"sequence": "GGAAACAUGAUGUUUUAAGTT against Bcl9", "z-score": "inactive: -0.183"}, {"sequence": "GGAAAACAUGUUCUCAUCUTT against 4930433N12Rik", "z-score": "inactive: 0.937"}, {"sequence": "GGAAUGUCCAAAGCAUUUATT against Olfr911-ps1", "z-score": "inactive: -0.421"}, {"sequence": "GGUGUUCCAAGAGUCGUCATT against Hrob", "z-score": "inactive: 0.196"}, {"sequence": "CCACUUGGUGCUAAAAAAATT against Pgap2", "z-score": "inactive: -0.319"}, {"sequence": "GCAGCUUAUCUACCUGUACTT against Chad", "z-score": "inactive: -1.77"}, {"sequence": "GGCCAUGACGAGGAAGAUGTT against Sv2b", "z-score": "inactive: -0.865"}, {"sequence": "GCAUAUGACACCGUAUCAGTT against Gprc5d", "z-score": "inactive: 0.914"}, {"sequence": "GGACACAGAAAAAGUUGAATT against Tbc1d4", "z-score": "inactive: -0.0174"}, {"sequence": "CGUAUGACUAAGGAUGAAUTT against Lrrc57", "z-score": "inactive: 0.849"}, {"sequence": "GGGUACCUUCUGAUGUUUUTT against Slx1b", "z-score": "inactive: 0.0863"}, {"sequence": "GGCGCAUGUUUCCAGCAAUTT against Tbx18", "z-score": "inactive: -0.0344"}, {"sequence": "CCUGUUGCUUACAAUUUUUTT against Yy1", "z-score": "inactive: 0.283"}, {"sequence": "GGUGCUUCUUUUGAGAAUGTT against Engase", "z-score": "inactive: -1.77"}, {"sequence": "GGACAACAACGAGACCUAATT against Osbpl11", "z-score": "inactive: -1.75"}, {"sequence": "GGAUCAUGGGUAUGGUACUTT against Dhx36", "z-score": "inactive: -1.52"}, {"sequence": "GCCCAACACUUGUUAAAGCTT against Fdxr", "z-score": "inactive: -0.74"}, {"sequence": "GCCGAGCUCAAUGUGGGUATT against Bsn", "z-score": "inactive: 1.11"}, {"sequence": "GAAAAAUCAAAGAGAUUGGTT against Slc26a11", "z-score": "inactive: 0.0264"}, {"sequence": "GGAUCUUGAACAAACCUGGTT against Akr1b3", "z-score": "inactive: -1.64"}]}]}
